Measurements as given in PMC6879148.

Experiments:
Assay in all cases: EMSA
OCT1 = biological target: T1, OCT1 (UniProt P14859); details: U2OS nuclear extract, quality control; EMSA as previously described (ref 19); protein in an extract; label: 32P (T4 polynucleotide kinase)
T1 sequence (looked up, limits assumed): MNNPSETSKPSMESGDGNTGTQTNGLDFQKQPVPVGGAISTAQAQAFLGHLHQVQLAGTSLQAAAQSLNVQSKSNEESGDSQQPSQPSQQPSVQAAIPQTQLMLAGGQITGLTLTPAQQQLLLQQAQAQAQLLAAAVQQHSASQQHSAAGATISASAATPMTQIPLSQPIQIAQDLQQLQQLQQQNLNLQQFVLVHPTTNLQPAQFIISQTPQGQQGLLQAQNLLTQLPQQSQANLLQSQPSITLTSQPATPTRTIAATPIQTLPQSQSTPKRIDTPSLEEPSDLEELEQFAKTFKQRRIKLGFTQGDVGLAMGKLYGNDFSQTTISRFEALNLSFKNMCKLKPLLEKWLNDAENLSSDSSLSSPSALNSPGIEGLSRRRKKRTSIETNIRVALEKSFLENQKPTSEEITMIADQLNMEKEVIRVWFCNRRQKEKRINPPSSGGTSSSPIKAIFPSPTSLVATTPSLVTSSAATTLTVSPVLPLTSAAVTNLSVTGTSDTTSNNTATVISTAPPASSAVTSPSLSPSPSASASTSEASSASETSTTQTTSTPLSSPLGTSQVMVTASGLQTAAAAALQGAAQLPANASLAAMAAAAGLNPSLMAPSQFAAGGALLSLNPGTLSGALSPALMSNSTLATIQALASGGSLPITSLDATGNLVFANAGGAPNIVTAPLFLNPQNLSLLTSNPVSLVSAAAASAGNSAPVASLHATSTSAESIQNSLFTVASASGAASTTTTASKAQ

[1] = biological target: GLI1FL (GLI1 isoform 1) (Homo sapiens) (UniProt P08151); details: U2OS nuclear extract; EMSA as previously described (ref 19); protein in an extract; residues 1-1106; protein details: Flag; label: 32P (T4 polynucleotide kinase)
[2] = tested on: T2, GLI1ΔN del1-128 (Homo sapiens); details: U2OS nuclear extract; EMSA as previously described (ref 19); protein in an extract; residues 1-978; protein details: Flag; label: 32P (T4 polynucleotide kinase)
T2 sequence (looked up): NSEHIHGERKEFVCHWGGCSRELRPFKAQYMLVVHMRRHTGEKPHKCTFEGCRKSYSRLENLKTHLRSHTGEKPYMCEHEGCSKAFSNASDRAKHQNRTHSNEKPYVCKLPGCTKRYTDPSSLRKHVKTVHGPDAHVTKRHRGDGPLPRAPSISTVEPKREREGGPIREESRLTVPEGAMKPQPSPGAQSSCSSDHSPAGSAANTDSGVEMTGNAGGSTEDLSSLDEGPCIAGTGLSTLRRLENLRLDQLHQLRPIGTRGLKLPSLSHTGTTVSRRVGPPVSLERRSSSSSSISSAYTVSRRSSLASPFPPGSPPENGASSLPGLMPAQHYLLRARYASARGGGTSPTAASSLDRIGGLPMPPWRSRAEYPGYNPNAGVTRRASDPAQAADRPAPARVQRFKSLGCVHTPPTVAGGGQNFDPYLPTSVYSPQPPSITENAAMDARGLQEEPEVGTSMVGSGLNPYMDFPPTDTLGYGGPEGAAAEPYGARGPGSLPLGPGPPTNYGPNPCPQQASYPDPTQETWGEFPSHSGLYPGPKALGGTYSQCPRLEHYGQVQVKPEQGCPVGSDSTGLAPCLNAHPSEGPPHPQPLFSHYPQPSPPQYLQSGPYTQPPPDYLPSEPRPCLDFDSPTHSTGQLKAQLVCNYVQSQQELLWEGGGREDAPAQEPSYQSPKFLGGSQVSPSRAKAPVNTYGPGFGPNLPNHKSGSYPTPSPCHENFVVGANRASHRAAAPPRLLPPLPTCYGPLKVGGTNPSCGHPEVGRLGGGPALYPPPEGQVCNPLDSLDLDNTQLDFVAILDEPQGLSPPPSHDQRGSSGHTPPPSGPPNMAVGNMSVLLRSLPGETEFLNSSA

Sequence | binding result (OCT1) | binding result [1] | binding result [2]
GAGAGGAATTTGCATTTCCACCGACCTTCC (double strand) [POURE] | binds | – | –
AGCTACCTGGGTGGTCTCTTCGA (double strand) [GLIRE] | – | binds | binds

For at least one entry, the source does not settle the construct or the ends of the probe. Results from cells or extracts need not show a direct contact. For part of these data: Protein sequences can lack the tags named with them.
